This note sets out measurements from patent US8067600B2, “Histone deacetylase inhibitors and methods of use thereof” (Georgetown University, priority 2003, dated 2011).

Each structure is given as a SMILES string.

A short description of this data set: Cytotoxicity in SQ-20B cells (colony formation). The settings on record: human, SQ-20B squamous carcinoma cells.

Usually IC50 stands for the concentration needed to halve the response being measured. Higher therefore signals a need for much substance. Consider `O=C(CCCCCCC(=O)Nc1ccccc1)NO` [SAHA, suberoylanilide hydroxamic acid, reference compound], for which the half-inhibitory concentration (IC50) at 24 h worked out at 3000 nM.
